No constants are given. Whether binding was seen depends on the method and setting. For part of these data: In cells and extracts the contact can be indirect. Some results given as binding are weak or reduced against the parent protein; the word gives no strength. For part of these data: Tags and fused reporters may be left off the sequences shown.
What was measured:
[1] = biological target: T1, USP1 with N-terminal His tag, amino acids 670-71 changed from GG to AA (non-cleavable), purified from Sf9 cells (human) (UniProt O94782); experiment: Ni-NTA co-purification through the His tag of USP1 from co-infected SF9 cells, then ion exchange and gel filtration
T1 sequence: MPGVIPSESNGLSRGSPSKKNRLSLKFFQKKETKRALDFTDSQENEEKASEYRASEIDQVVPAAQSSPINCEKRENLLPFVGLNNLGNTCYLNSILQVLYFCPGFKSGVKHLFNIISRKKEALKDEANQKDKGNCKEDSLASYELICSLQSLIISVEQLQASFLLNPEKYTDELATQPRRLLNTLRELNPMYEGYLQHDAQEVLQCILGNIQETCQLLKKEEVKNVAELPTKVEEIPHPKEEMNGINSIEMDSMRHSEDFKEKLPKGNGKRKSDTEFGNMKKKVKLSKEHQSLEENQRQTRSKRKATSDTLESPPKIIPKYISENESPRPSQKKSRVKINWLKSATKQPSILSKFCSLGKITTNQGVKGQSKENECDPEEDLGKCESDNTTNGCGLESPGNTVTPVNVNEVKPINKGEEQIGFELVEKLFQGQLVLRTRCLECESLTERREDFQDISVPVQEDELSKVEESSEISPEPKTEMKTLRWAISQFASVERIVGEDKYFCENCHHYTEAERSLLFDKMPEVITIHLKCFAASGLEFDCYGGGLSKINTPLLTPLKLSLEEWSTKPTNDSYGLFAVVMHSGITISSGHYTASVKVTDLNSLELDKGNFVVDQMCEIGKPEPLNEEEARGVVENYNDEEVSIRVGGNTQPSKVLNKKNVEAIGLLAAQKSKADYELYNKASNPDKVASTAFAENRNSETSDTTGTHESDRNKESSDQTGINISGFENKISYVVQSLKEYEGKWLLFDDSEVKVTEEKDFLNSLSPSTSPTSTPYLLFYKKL

Chains of the proteins cited; added tags and fusions are not shown. Lines headed by an entry give the natural chain unless they say otherwise; changes in a name come on top.
UniProt Q8TAF3: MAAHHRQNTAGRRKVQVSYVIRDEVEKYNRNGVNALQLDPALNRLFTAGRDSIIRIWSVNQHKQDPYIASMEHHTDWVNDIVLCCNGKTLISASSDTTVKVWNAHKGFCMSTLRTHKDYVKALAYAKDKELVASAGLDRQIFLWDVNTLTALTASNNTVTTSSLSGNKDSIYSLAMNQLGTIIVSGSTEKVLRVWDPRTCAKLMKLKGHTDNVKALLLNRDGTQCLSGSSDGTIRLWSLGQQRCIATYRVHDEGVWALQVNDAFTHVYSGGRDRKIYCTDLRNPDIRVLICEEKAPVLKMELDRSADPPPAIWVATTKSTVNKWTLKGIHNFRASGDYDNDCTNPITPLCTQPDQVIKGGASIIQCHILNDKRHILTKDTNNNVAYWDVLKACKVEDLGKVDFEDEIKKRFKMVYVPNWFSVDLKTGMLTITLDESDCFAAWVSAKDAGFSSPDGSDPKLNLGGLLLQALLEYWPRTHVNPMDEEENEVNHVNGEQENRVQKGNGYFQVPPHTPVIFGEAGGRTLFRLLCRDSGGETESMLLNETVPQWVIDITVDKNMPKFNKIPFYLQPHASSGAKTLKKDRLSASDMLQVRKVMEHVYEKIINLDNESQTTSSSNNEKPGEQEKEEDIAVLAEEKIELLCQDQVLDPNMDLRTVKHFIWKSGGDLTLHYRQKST

[2] = biological target: T2, N-terminal cleavage product of endogenous USP1 (human) (UniProt O94782); experiment: anti-Flag immunoprecipitation from transiently transfected 293T cells, anti-USP1 immunoblot
T2 sequence: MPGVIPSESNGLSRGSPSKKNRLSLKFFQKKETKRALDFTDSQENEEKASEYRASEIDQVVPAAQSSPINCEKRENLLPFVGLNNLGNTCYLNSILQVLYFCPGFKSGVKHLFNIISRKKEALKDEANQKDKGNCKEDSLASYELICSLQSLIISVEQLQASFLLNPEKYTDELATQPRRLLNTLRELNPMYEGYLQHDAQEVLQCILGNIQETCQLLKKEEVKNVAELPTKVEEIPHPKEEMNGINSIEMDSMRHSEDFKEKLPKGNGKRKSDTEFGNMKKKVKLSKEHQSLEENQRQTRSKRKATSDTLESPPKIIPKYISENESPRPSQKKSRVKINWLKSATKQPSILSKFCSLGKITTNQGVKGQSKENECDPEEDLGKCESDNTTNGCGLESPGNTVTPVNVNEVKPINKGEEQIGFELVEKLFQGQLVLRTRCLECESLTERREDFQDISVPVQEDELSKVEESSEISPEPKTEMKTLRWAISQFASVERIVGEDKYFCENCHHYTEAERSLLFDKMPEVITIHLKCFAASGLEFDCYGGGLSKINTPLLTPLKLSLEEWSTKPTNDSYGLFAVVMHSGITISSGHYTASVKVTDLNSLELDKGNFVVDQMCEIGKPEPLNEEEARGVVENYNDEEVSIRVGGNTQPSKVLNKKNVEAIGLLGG

[3] = biological target: T3, N-terminal cleavage product of c-Myc-tagged USP1 (rabbit reticulocyte lysate) (human) (UniProt O94782); experiment: immunoprecipitation of UAF1 from rabbit reticulocyte lysate reactions
T3 sequence: T2 sequence

[4] = biological target: T2, N-terminal cleavage product of endogenous USP1 (human); experiment: anti-Flag immunoprecipitation of Flag-HA-UAF1 from HeLa cells, anti-USP1 immunoblot [D]
[5] = biological target: T2, N-terminal cleavage product of endogenous USP1 (human); experiment: anti-Flag immunoprecipitation from HeLa cells, anti-USP1 immunoblot

Substance: UAF1 expressed in SF9 cells from pFastBac without the N-terminal His tag, Example 10 (from UniProt Q8TAF3 1-676)
- binding [1]: binds

Substance: Flag-tagged UAF1-Δ546-585 expressed in 293T cells (from UniProt Q8TAF3 1-676)
- binding [2]: binds

Substance: Flag-HA-tagged UAF1, expressed in and purified from HeLa cells (from UniProt Q8TAF3 1-676)
- binding [3]: binds
- binding [4]: binds
- binding [5]: binds

Substance: Flag-tagged UAF1-Δ635-677 expressed in 293T cells (from UniProt Q8TAF3 1-634)
- binding [2]: binds

From patent US20080167229A1
